Reference: PubChem BioAssay AID1347076 (National Center for Advancing Translational Sciences (NCATS), 2019)
The campaign covered roughly 400,000 compounds. About 13,000 (3.2%) were called active. The shares of active, inactive and inconclusive entries below differ from those in the screen. Calls follow the shape of the dose curve; as a rule, active = well fitted cell-killing curve with a large enough effect; inconclusive = small, poorly fitted or top-dose-only effect, or effect the other way; inactive = flat fitted curve, though single readings scatter. Potencies beside an inconclusive call are fits to weak or partial responses and may not hold up.

Test: qHTS assay for MDR1-selective chemotherapeutics: Primary screen using the drug-selected MDR subline cells KB-V1; also: nearly all actives have a fitted effect of over 60% in size
Settings: KB-V1 MDR cells viability, CellTiter-Glo, 72 h; activity change, negative = cytotoxicity: at 46.1 µM (top of the series)
Summary of the method: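 Cells of the MDR subline KB-V1 are plated, dosed with compound at multiple concentrations, and incubated 72 h at 37 degrees C; CellTiter-Glo is then added and luminescence read after 10 min.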
% is scaled to controls: 0 for no effect and ±100 for the full control effect; potency is read from the fitted curve at half-maximal effect.

Structure (SMILES) | activity change, negative = cytotoxicity | Potency
COc1ccc(CC(=O)N2CCc3cc(OC)c(OC)cc3C2COc2cc(C)cc(C)c2)cc1OC (stereo not given) | inactive: -11.7% | 
COc1cccc(Cn2c(Oc3cc(C)cc(C)c3)nc3c2c(=O)n(C)c(=O)n3C)c1 | inactive: 4.02% | 
COC(=O)c1c(N)sc2c1CCN(c1ncc(C(F)(F)F)cc1Cl)C2 |  | inconclusive: 29.1 µM [cytotoxic, single point]
Oc1ccccc1-c1nc(NCCN2CCOCC2)c2ccccc2n1 |  | active: 16.4 µM
CCCC1(c2ccccc2)NC(=O)N(CC(=O)Nc2sc(-c3ccccc3)cc2C(=O)OCC)C1=O (stereo not given) |  | inconclusive: 13 µM [cytotoxic, partial curve, poor fit]
Cc1cc(C)c(/C=N/NC(N)=O)c(C)c1/C=N/NC(N)=O |  | inconclusive: 1.3 µM [cytotoxic, full curve, poor fit]
O=C(COc1ccc(S(=O)(=O)N2CCOCC2)cc1Cl)NCc1ccc2c(c1)OCO2 |  | inconclusive: 23.1 µM [cytotoxic, single point]
O=C(COc1ncnc2sccc12)Nc1ccc(F)cc1F |  | inconclusive: 29.1 µM [rising, single point]
COC(=O)c1[nH]c2ccc(F)cc2c1NS(=O)(=O)c1ccc(F)c(C)c1 |  | active: 16.4 µM
CCOC(=O)c1ccc(N2C(=O)c3n[nH]c(-c4ccco4)c3C2c2ccc(C)cc2)cc1 (stereo not given) |  | inconclusive: 23.1 µM [cytotoxic, single point]
COc1ccc(CN2CC(C(=O)N3CCOCC3)CC2=O)cc1 (stereo not given) |  | inconclusive: 25.9 µM [rising, single point]
CC(C)C(NC(=O)c1ccc(Cl)cc1)C(=O)NCC1CCCO1 (stereo not given) |  | inconclusive: 16.4 µM [cytotoxic, single point]
O=C(Nc1ccc(-n2nncc2-c2ccco2)cc1)c1cccc(F)c1 |  | active: 16.4 µM
CCc1cccc(CC)c1N1C(=O)CC(Sc2ccccc2N)C1=O (stereo not given) |  | active: 6.51 µM
OCC[C@@H]1C[C@@H](O)[C@H](O)[C@@]2(CCc3ccccc3O2)O1 | inactive: 17.6% | 
CCOc1ccc(CCNC(=O)CN2CCN(Cc3ccc(Cl)cc3)C2=O)cc1OCC | inactive: -31.2% | 
Cc1ccc(-c2nnn(CC(=O)N(Cc3cccs3)C(C(=O)NC3CCCCC3)c3ccco3)n2)o1 (stereo not given) |  | inconclusive: 16.4 µM [cytotoxic, single point]
Cc1ccnc(NCc2cc(Cl)cc(Cl)c2O)c1 | inactive: -1.65% | 
CCCCSc1nc2sc3c(c2c(=O)n1-c1ccc(OC)cc1)CCN(C)C3 |  | inconclusive: 20.6 µM [rising, single point]
Cc1ccsc1/C=N/n1c(-c2cccnc2)n[nH]c1=S |  | inconclusive: 23.1 µM [cytotoxic, partial curve, poor fit]
N=c1c2c3c(sc2nc2n1CCC2)CCCC3 |  | inconclusive: 14.6 µM [cytotoxic, partial curve]
Cc1cccc(C)c1Nc1nn2c(=O)c3cc4c(cc3nc2s1)OCO4 | inactive: 1.69% | 
O=C(NCc1ccc(Cl)cc1)C1CCN(S(=O)(=O)c2cc([N+](=O)[O-])ccc2Cl)CC1 | inactive: 27.5% | 
CCN(c1ccccc1)S(=O)(=O)c1ccc(OC)c(NC(=O)c2ccco2)c1 |  | inconclusive: 14.6 µM [cytotoxic, partial curve]

By substructure: the entries above with an aryl thioether with sulfur outside any ring (2)
Structure (SMILES) | activity change, negative = cytotoxicity | Potency
CCc1cccc(CC)c1N1C(=O)CC(Sc2ccccc2N)C1=O (stereo not given) |  | active: 6.51 µM
CCCCSc1nc2sc3c(c2c(=O)n1-c1ccc(OC)cc1)CCN(C)C3 |  | inconclusive: 20.6 µM [rising, single point]

Sorted by SMILES length (smallest number first): three of the compounds above.
Structure (SMILES) | activity change, negative = cytotoxicity | Potency
Cc1cccc(C)c1Nc1nn2c(=O)c3cc4c(cc3nc2s1)OCO4 | inactive: 1.69% | 
COC(=O)c1[nH]c2ccc(F)cc2c1NS(=O)(=O)c1ccc(F)c(C)c1 |  | active: 16.4 µM
O=C(NCc1ccc(Cl)cc1)C1CCN(S(=O)(=O)c2cc([N+](=O)[O-])ccc2Cl)CC1 | inactive: 27.5% | 

(listing goes on)

Structure (SMILES) | activity change, negative = cytotoxicity | Potency
Brc1ccc2c(c1)OCCOCCOc1cc(Br)ccc1OCCOCCOCCO2 |  | active: 2.31 µM
CCc1ccc(N(CC)C(=O)c2cc3c(=O)oc4ccc(C)cc4c3s2)cc1 |  | inconclusive: 11.6 µM [rising, partial curve, poor fit]
Cc1ccc(/C=C/C(=O)OCC(=O)Nc2cccc(S(=O)(=O)N(C)C)c2)o1 | inactive: 0% | 
O=C(N/N=C/c1ccc(-c2ccc([N+](=O)[O-])cc2)o1)[C@H]1C[C@@H]1c1ccccc1 | inactive: -6.04% | 
CCOC(=O)CCNC(=O)N1CCCC(C(=O)c2cc(C)c(OC)c(C)c2)C1 (stereo not given) | inconclusive: -66.6% | 
CC(C)(CC(=O)N1CCN(c2ccc(Cl)cc2)CC1)CC1=NS(=O)(=O)c2ccccc2N1 |  | active: 4.11 µM
Cc1ccc(NS(=O)(=O)c2c(C)[nH]c(=O)[nH]c2=O)c(Br)c1 |  | inconclusive: 23.1 µM [rising, single point]
O=C(NCCSc1c(-c2ccccc2)[nH]c2ccccc12)c1cc2ccccc2oc1=O |  | inconclusive: 23.1 µM [cytotoxic, single point]
O=C1c2cccc3cccc(c23)C(=O)N1CC1CCN(S(=O)(=O)c2ccc(F)cc2)CC1 |  | active: 9.2 µM
Cc1cccc(CCNS(=O)(=O)c2ccc(S(=O)(=O)NC3CCCC3)cc2)c1 |  | inconclusive: 20.6 µM [cytotoxic, partial curve]
C=CCn1c(N)c(C(=O)NC2CCCCC2)sc1=S |  | inconclusive: 23.1 µM [cytotoxic, single point]
CCOC(=O)CNC(=O)N1CCc2ccc(NC(=O)c3ccccc3Cl)cc2C1 |  | inconclusive: 25.9 µM [rising, single point]
C=CCn1c(C)cc(-c2csc(NCC)n2)c1C |  | inconclusive: 25.9 µM [cytotoxic, single point]
COc1ccc(-c2nc3cc(C)c(Br)c(C)n3c2Cc2ccc(C)cc2)cc1OC | inactive: 17% | 
COc1ccc([C@H]2CC(=O)C=C(c3cccc(C(C)C)c3)C2)cc1OC |  | inconclusive: 29.1 µM [cytotoxic, single point]
O=C(O)CSc1cnc2ccccc2n1 |  | inconclusive: 18.4 µM [rising, partial curve, poor fit]
CCCCn1c(N)c(N(CCC(C)C)C(=O)c2ccc3c(c2)OCO3)c(=O)[nH]c1=O |  | inconclusive: 10.3 µM [cytotoxic, partial curve, poor fit]
O=C(Cn1c(=O)n(-c2ccc(F)cc2)c(=O)c2sccc21)c1ccccc1 |  | active: 20.6 µM
N#Cc1ccc(/C=N/NC(=O)c2cc(-c3cccs3)nc3ccccc23)cc1 | inactive: -28.1% | 
CCC(C)Sc1nc2c(c(=O)[nH]c(=O)n2C)n1C (stereo not given) |  | inconclusive: 23.1 µM [cytotoxic, partial curve]
O=[N+]([O-])c1ccc(N2CCCC2)cc1N1CCCC1 |  | inconclusive: 29.1 µM [cytotoxic, single point]
Cc1ccc(S(=O)(=O)N(C)C)cc1NC(=S)NC(=O)C12CC3CC(CC(C3)C1)C2 |  | inconclusive: 2.31 µM [cytotoxic, full curve, poor fit]
Cc1ccc(CCNC(=O)c2ccc3c(Cl)c4c(nc3c2)CCCC4)cc1 | inactive: -8.03% | 
Cc1c(Cl)cccc1NC(=S)NCCCN(C)C |  | inconclusive: 18.4 µM [rising, single point]

Structure (SMILES) | activity change, negative = cytotoxicity | Potency
O=c1[nH]c(C2CCCN(S(=O)(=O)c3ccccc3)C2)nc2c1nnn2Cc1ccccc1 (stereo not given) |  | inconclusive: 16.4 µM [cytotoxic, partial curve, poor fit]
CN(CCc1ccccn1)C1CCCN(S(=O)(=O)c2ccccc2)C1 (stereo not given) |  | inconclusive: 20.6 µM [cytotoxic, single point]
O=c1[nH]cnc2cc(-c3ccccc3)sc12 |  | active: 6.51 µM
N#Cc1cccc(CN2CCC(=O)N([C@H](CO)Cc3ccccc3)CC2)c1 |  | inactive
CCN(CC)S(=O)(=O)c1ccc(N2CCN(c3cccc(OC)c3)CC2)c([N+](=O)[O-])c1 |  | active: 2.91 µM
COC(=O)c1ccc(C(=O)OC)c(NC(=O)CN(C)Cc2ccc(Cl)c(Cl)c2)c1 |  | inconclusive: 29.1 µM [cytotoxic, single point]
C[C@@H]1NC(=O)[C@H](CCC(N)=O)NC(=O)c2cc([N+](=O)[O-])cc(I)c2NCC[C@@H](C(N)=O)NC1=O |  | inconclusive: 29.1 µM [rising, single point]
O=C(Nc1cccc(Cl)c1Cl)c1cc(S(=O)(=O)NCc2ccc3c(c2)OCO3)ccc1F | inactive: 4.59% | 
O=C(Cn1cc(C(=O)C(F)(F)F)c2ccccc21)Nc1ccccc1F | inactive: -0.323% | 
Cc1cccc2cc(C#N)c(NCCNS(=O)(=O)c3ccc4c(c3)OCCO4)nc12 |  | active: 23.1 µM
CC(=O)Nc1cc(-c2ccc(S(C)(=O)=O)cc2)cn2c(-c3ccc(F)c(Cl)c3)cnc12 | inactive: -21.8% | 
O=C(c1cc(Cl)ccc1[N+](=O)[O-])N1CCc2ccccc2C1 | inactive: 4.21% | 
CCN(c1ccccc1)S(=O)(=O)c1ccc(C(=O)N2CCN(c3ccccc3F)CC2)cc1 |  | inconclusive: 7.31 µM [cytotoxic, partial curve]
CC(=O)NC(C)c1cc(Cl)c2ccccc2c1O (stereo not given) | inactive: -8.28% | 
Cc1ccc(N=Nc2c(O)[nH]c(=O)[nH]c2=O)cc1S(=O)(=O)Nc1ccc(Br)cc1 | inactive: -12.8% | 
O=C(Nc1nc2n(n1)C(c1ccc(F)cc1)C=C(c1ccccc1)N2)c1ccco1 (stereo not given) | inactive: -13.8% | 
O=c1c(-c2cc(-c3ccccc3)nc3c2COc2ccc(Cl)cc2-3)coc2ccc(F)cc12 |  | inconclusive: 2.91 µM [rising, partial curve, poor fit]
CSc1ccc(CCNC(=O)Cn2ccc3cc(S(=O)(=O)N4CCCCCC4)ccc32)cc1 | inactive: 11.1% | 
COC(=O)C[C@H]1C=C[C@H](NC(=O)c2ccc(F)cc2)[C@@H](CO)O1 | inactive: -15% | 
Cc1ccc(-c2csc3ncnc(-n4cnc5ccccc54)c23)cc1 |  | inconclusive: 18.4 µM [cytotoxic, single point]
CCN(C(=O)CSc1ncnc2sc(C)c(C)c12)C1CCS(=O)(=O)C1 (stereo not given) |  | inconclusive: 16.4 µM [cytotoxic, partial curve, poor fit]
O=C1/C(=C/c2ccc3c(c2)OCO3)Oc2cc(OCC(=O)N3CCC[C@H]3C(=O)O)ccc21 |  | inconclusive: 3.66 µM [rising, single point]
